For the assay, the target named is T1, C-terminal c-Myc-tagged SEC11A (Origene) (UniProt Q9R0P6).
T1 sequence: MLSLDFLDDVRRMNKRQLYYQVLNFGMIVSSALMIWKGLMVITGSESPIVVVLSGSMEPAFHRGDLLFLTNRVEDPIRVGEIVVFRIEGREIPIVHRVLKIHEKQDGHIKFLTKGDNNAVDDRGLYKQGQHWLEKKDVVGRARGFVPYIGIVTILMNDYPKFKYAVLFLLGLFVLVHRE
The assay can be described thus: co-IP; HEK293T cells transfected with C-terminal c-Myc-tagged SEC11A and C-terminal FLAG-tagged mouse NNAT; lysates immunoprecipitated with anti-c-Myc agarose; Western blot with anti-c-Myc and anti-FLAG.

These are yes or no findings as the source states them, for the method shown. Binding seen in cells or lysates may run through a third protein. Some results given as binding are weak or reduced against the parent protein; the word gives no strength. Tags and fused reporters may be left off the sequences shown.

B1: C-terminal FLAG-tagged mouse NNAT (pcDNA3.1) (protein, UniProt Q61979 1-81)
chain: MAAVAAASAELLIIGWYIFRVLLQVFLECCIYWVGFAFRNPPGTQPIARSEVFRYSLQKLAHTVSRTGRQVLGERRQRAPN
Take B1: the binding entry is “binds”.

The record behind these values is PMC6063487.
